PubChem BioAssay AID1259331, Drosophila RNAi Screening Center | 2017
The deposit covers about 3,100 reagents; shown is an unselected part. 126 of all reagents (4.1%) were called active. 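Calls are per reagent; zinc was so toxic that few knock-downs lowered ATP further, so most hits raise ATP.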 Raw values are not corrected between plates. The numbers tell different reagents against one gene apart. The record does not give: the amount of reagent.

Aim: 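Fly transmembrane-protein genes that affect zinc toxicity in cultured cells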 (primary screen)
System: Drosophila S2R+ cells
Reagents: long dsRNA against Drosophila genes
Timing: 5 days (4 days knock-down, then 1 day zinc)
Treatment: zinc chloride at 15 mM final level for 1 day
Measured: 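Luminescent ATP assay standing in for viability; Z score is the mean over three replicate plates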
Scale: mean Z score: higher = more ATP than other wells, better survival under zinc; ATP luminescence: higher = more ATP, more viable cells
Hit rule: 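Hit when the absolute Z score is greater than 1.5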
Meaning of the calls: active = hit, ATP up or down; inactive = not a hit

The opening 2 records, to show the layout:
Toll-4 #1 — mean Z score = -0.164; ATP luminescence, replicate 1 = 49898; ATP luminescence, replicate 2 = 41445; activity call = inactive
Toll-4 #2 — mean Z score = -0.763; ATP luminescence, replicate 1 = 39474; ATP luminescence, replicate 2 = 38136; activity call = inactive

Main list, from the first entry:
Toll-4 #1 — mean Z score = -0.164; ATP luminescence, replicate 1 = 49898; ATP luminescence, replicate 2 = 41445; activity call = inactive
Toll-4 #2 — mean Z score = -0.763; ATP luminescence, replicate 1 = 39474; ATP luminescence, replicate 2 = 38136; activity call = inactive
CG31103 — mean Z score = -0.138; ATP luminescence, replicate 1 = 54167; ATP luminescence, replicate 2 = 56482; activity call = inactive
VGAT — mean Z score = 0.169; ATP luminescence, replicate 1 = 74592; ATP luminescence, replicate 2 = 79017; activity call = inactive
Tsp42Ec #1 — mean Z score = 0.0138; ATP luminescence, replicate 1 = 88538; ATP luminescence, replicate 2 = 71934; activity call = inactive
Tsp42Ec #2 — mean Z score = -0.686; ATP luminescence, replicate 1 = 60512; ATP luminescence, replicate 2 = 40553; activity call = inactive
CG9447 — mean Z score = -0.193; ATP luminescence, replicate 1 = 81607; ATP luminescence, replicate 2 = 65742; activity call = inactive
Tsp68C #1 — mean Z score = 0.607; ATP luminescence, replicate 1 = 72774; ATP luminescence, replicate 2 = 79532; activity call = inactive
Tsp68C #2 — mean Z score = 0.471; ATP luminescence, replicate 1 = 68178; ATP luminescence, replicate 2 = 69144; activity call = inactive
LpR1 #1 — mean Z score = 1.04; ATP luminescence, replicate 1 = 55676; ATP luminescence, replicate 2 = 65554; activity call = inactive
LpR1 #2 — mean Z score = -0.224; ATP luminescence, replicate 1 = 35325; ATP luminescence, replicate 2 = 57919; activity call = inactive
LpR1 #3 — mean Z score = 0.471; ATP luminescence, replicate 1 = 70081; ATP luminescence, replicate 2 = 63513; activity call = inactive
CG11655 — mean Z score = 0.798; ATP luminescence, replicate 1 = 78554; ATP luminescence, replicate 2 = 80012; activity call = inactive
sut3 #1 — mean Z score = 0.319; ATP luminescence, replicate 1 = 77714; ATP luminescence, replicate 2 = 80167; activity call = inactive
sut3 #2 — mean Z score = 0.514; ATP luminescence, replicate 1 = 64679; ATP luminescence, replicate 2 = 63133; activity call = inactive
CG31999 #1 — mean Z score = 0.259; ATP luminescence, replicate 1 = 66360; ATP luminescence, replicate 2 = 74421; activity call = inactive
CG31999 #2 — mean Z score = -0.354; ATP luminescence, replicate 1 = 38417; ATP luminescence, replicate 2 = 39216; activity call = inactive
